According to patent publication US7259146B2, “Neuroprotective peptides” (Ortho-McNeil Pharmaceutical, Inc., priority 2000, dated 2007):
Some results were stated once for a whole list of compounds, not compound by compound. Some compounds share one range, which may span the group rather than tell each member.

What was measured:
[1] = tested on: rat cerebral cortical cultures; assay: Neurite outgrowth assay (MAP2-FITC immunofluorescence), cortical cultures; format: cell-based; conditions: for neurite outgrowth at maximal/peak activity, above the vehicle response: EMP 10 fM-10 nM, one week in culture
Excerpt: (§1) Dissociated hippocampal and cortical cell cultures were established from embryonic day 18 rat fetuses as previously described (Mattson et al., 1994). Briefly, fetuses were removed via cesarean section from pregnant moms (Sprague-Dawley) anesthetized with halothane according to the AVMA Panel on Euthanasia. Pups were decapitated and the brains were removed and placed in HEPES-buffered Hank's Balanced Salt solution (HBSS; Gibco). The hippocampi and cortices were dissected out and pooled according to tissue-type. Tissue was trypsinized for 15 min (1 mg/ml trypsin-HBSS; Worthington), rinsed with fresh HBSS, incubated in trypsin inhibitor (1 mg/ml; Sigma) for 5 min, rinsed again with fresh HBSS and then triturated in 1 ml fresh HBSS with a fire-polished glass pipette. Dissociated cells were seeded at 30,000 cells/well onto poly-D-lysine coated 96-well plates (Collaborative BioScience). Each well contained 100 μl of Eagle's Minimal Essential Media (MEM; Gibco) supplemented with 26 mM NaHCO3 (Sigma), 56 mM glucose (Sigma), 15 mM KCl (Sigma), 1 mM sodium pyruvate (Sigma), 1.1 mM L-glutamine (Sigma), 10% (v/v) heat-inactivated fetal bovine serum (Hyclone), and 0.001% gentamicin sulfate (Sigma) (pH 7.4). Cells were allowed to attach for 24 h in a humidified 37° C. 5% CO2 incubator before experimental treatment. The culture media was aspirated and exchanged with fresh media every three days.
(§2) Twenty-four hours after plating, cultures were treated with vehicle (PBS+0.1% BSA), 100 ng of various growth factors (brain derived neurotrophic factor (BDNF; Promega), glial-derived neurotrophic factor (GDNF; Promega), nerve growth factor (NGF; Boehringer Mannheim), basic fibroblast growth factor (bFGF; Boehringer Mannheim), insulin-like growth factor-1 (IGF-1; Boehringer Mannheim), neurotrophin-3 (NT3; Calbiochem), neurotrophin-4 (NT4; Calbiochem), ciliary neurotrophic factor (CNTF; Calbiochem), epidermal growth factor (EGF; Calbiochem), vascular endothelial growth factor (VEGF; Calbiochem)), or rhEPO (prepared same as above; 10 fM-10 nM)). Each treatment condition was run in quadruplicate or octuplicate. On the third day in culture, the media was aspirated off and replaced with fresh media and test compound. At one week in culture, the cells were fixed with 10% phosphate-buffered formalin for 15 min, then rinsed with DPBS (Sigma) and placed in blocking serum for 30 min (horse serum; 1:50 dilution in DPBS; Vector Labs). Cultures were rinsed again with DPBS and then incubated in primary antibody for 2 hr (microtubule-associated protein-2 (MAP-2) is a selective marker for dendritic processes; anti-mouse monoclonal (Chemicon); 1:1000 dilution of MAP-2 in antibody diluent (Zymed)). Negative control wells were incubated in antibody diluent alone. Background signal was determined by blank wells (cell-free) incubated with or without antibody. Cultures were rinsed again with DPBS and then placed in fluorescein for 1 hr (FITC; anti-mouse IgG; rat adsorbed; 1:50 dilution in DPBS; Vector Labs). Cultures were rinsed a final time with DPBS and then the plates were read on a Cytofluor 4000 fluorescence plate reader. Neurite outgrowth was expressed as percent change from control (vehicle; mean fluorescence±SD).
(§3) Dissociated hippocampal and cortical cell cultures were established from embryonic day 18 rat fetuses as previously described (Mattson et al., 1994). Briefly, fetuses were removed via cesarean section from pregnant moms (Sprague-Dawley) anesthetized with halothane according to the AVMA Panel on Euthanasia. Pups were decapitated and the brains were removed and placed in HEPES-buffered Hank's Balanced Salt solution (HBSS; Gibco). The hippocampi and cortices were dissected out and pooled according to tissue-type. […]

rat hippocampal cultures = assay: Neurite outgrowth assay (MAP2-FITC immunofluorescence), hippocampal cultures; format: cell-based; conditions: for neurite outgrowth at peak activity, increase over vehicle: EMP 10 fM-10 nM, one week in culture
Excerpt: as §1, §2, §3

## GGTASCHFGPLTWVCKPQGG [EMP-6]
[1]
  concentration of maximal/peak activity: 30 to 300 pM
  neurite outgrowth at maximal/peak activity, above the vehicle response: 68–87%
Rat hippocampal cultures
  concentration of peak activity: 30 to 300 pM
  neurite outgrowth at peak activity, increase over vehicle: 83–117%

## GGTYSCFGPLTWVCKPQGG [EMP-27]
[1]
  concentration of maximal/peak activity: 30 to 300 pM
  neurite outgrowth at maximal/peak activity, above the vehicle response: 32–40%
Rat hippocampal cultures
  neurite outgrowth at peak activity, increase over vehicle: 29–32%

## GGTYSCHFAPLTWVCKPQGG [EMP-9]
[1]
  concentration of maximal/peak activity: 30 to 300 pM
  neurite outgrowth at maximal/peak activity, above the vehicle response: 32–40%
Rat hippocampal cultures
  neurite outgrowth at peak activity, increase over vehicle: 29–32%

## GGTYSCHFGPLTWVCKPQGG [EMP-1]
[1]
  concentration of maximal/peak activity: 30 to 300 pM
  neurite outgrowth at maximal/peak activity, above the vehicle response: 32–40%
Rat hippocampal cultures
  concentration of peak activity: 30 to 300 pM
  neurite outgrowth at peak activity, increase over vehicle: 83–117%

## YCHFGPLTWVC [EMP-23]
[1]
  concentration of maximal/peak activity: 30 to 300 pM
  neurite outgrowth at maximal/peak activity, above the vehicle response: 68–87%
